PubChem BioAssay AID1671190 (National Center for Advancing Translational Sciences (NCATS), 2021)
Out of some 580,000 compounds screened, about 6,100 (1.1%) were called active. The shares of active, inactive and inconclusive entries below differ from those in the screen. Calls follow the shape of the dose curve; as a rule, active = well fitted inhibition curve with a large enough effect; inconclusive = small, poorly fitted or top-dose-only effect, or another doubt; inactive = no such curve, though single readings can be large or run the other way. Where the call is inconclusive, the potency comes from a doubtful curve fit.

Chains of the proteins cited; added tags and fusions are not shown. Lines headed by an entry give the natural chain unless they say otherwise; changes in a name come on top.
UniProt P18054: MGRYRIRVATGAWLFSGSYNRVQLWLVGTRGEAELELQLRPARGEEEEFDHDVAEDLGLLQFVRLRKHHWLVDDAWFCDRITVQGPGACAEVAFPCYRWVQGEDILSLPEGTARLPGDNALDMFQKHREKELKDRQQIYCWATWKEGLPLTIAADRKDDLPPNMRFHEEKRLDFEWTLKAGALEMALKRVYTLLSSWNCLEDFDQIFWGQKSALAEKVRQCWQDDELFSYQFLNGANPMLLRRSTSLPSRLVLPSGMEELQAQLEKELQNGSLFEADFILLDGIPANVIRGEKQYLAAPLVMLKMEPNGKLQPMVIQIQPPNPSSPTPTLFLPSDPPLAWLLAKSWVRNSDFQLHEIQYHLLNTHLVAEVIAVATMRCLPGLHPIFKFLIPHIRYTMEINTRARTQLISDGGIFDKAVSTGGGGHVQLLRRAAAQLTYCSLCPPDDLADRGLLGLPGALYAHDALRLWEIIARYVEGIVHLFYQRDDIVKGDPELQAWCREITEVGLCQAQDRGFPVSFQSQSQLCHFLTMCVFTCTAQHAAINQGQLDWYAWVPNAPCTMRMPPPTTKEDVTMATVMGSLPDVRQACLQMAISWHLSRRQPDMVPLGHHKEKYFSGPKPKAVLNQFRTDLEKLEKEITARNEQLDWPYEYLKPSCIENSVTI

These compounds were tested against Polyunsaturated fatty acid lipoxygenase ALOX12 (Homo sapiens) (UniProt P18054) (assay: Primary qHTS assay for inhibitors of human arachidonate 12S-lipoxygenase (ALOX12): Round 2). Details: purified 12hLO, xylenol orange hydroperoxide absorbance; activity change, negative = inhibition: at 108 µM (top of the series) unless noted.
Procedure, shortened: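 Purified human 12hLO (150 nM final) in 25 mM Hepes, 0.01% Triton X-100, pH 7.0 was preincubated 15 min at room temperature with compound. Then 40 uM arachidonic acid was added, 30 min. Hydroperoxide was read by Fe-XO absorbance ratio 573/405 nm.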
% is scaled to controls: 0 for no effect and ±100 for the full control effect; potency is read from the fitted curve at half-maximal effect.

Compound | Potency | activity change, negative = inhibition
CCOC(=O)c1cc2cc(Oc3cccc(C)c3)ccc2[nH]1 | inconclusive: 44.7 µM [inhibitor, partial curve, poor fit] | 
N#C/C(=C/c1ccc(OC(F)F)cc1)C(=O)Nc1ccccc1Oc1ccccc1 | inconclusive: 2.24 µM [inhibitor, full curve, poor fit] | 
O=C(Nc1cccc(C(F)(F)F)c1)C1C(c2ccccc2)=C1c1ccccc1 |  | inactive: 53.7%
COc1cc(/C=C/c2nc3c(ccc4ccccc43)s2)cc(OC)c1OC | inconclusive: 44.7 µM [inhibitor, partial curve, poor fit] | 
CCN(CC)CCN1C(=O)C(=O)/C(=C(/O)c2ccc(S(=O)(=O)N3CCOCC3)cc2)C1c1ccc(Cl)cc1 (stereo not given) | inconclusive: 79.4 µM [inhibitor, single point] | 
NC(Cc1ccc(OC(F)F)cc1)C(=O)O (stereo not given) | inconclusive: 7.08 µM [inhibitor, full curve, poor fit] | 
COCC(=O)N(Cc1cc2ccc(C)cc2[nH]c1=O)c1cccc(C)c1 | inconclusive: 35.5 µM [inhibitor, partial curve, poor fit] | 
O=C(Oc1ccc2c(=O)c(-c3ccccc3)coc2c1)c1cccs1 | inconclusive: 11.2 µM [inhibitor, full curve, poor fit] | 
O=C1c2cccc([N+](=O)[O-])c2C(=O)N1CCO |  | inactive: -4.98%
COC(=O)[C@]1(Sc2ccc(C)cc2)CC(=O)N[C@@H]1c1ccco1 | inconclusive: 44.7 µM [inhibitor, partial curve] | 
O=C(O)COc1ccc(NC(=O)C(c2ccccc2)c2ccccc2)cc1 | inconclusive: 12.6 µM [inhibitor, full curve, poor fit] | 
COc1ccc(C(=O)Nc2ccc3oc(-c4ccccc4F)cc(=O)c3c2)cc1 |  | inactive: -1.25%
Fc1ccc2nc(CO[C@H]3CN(Cc4ccncc4F)C[C@H]3F)[nH]c2c1 |  | inactive: 37.5% [at 176 µM]
CC(=O)N1CC2(Cc3ccccc31)CN(C(=O)C(C)(C)C)C2 | inconclusive: 70.8 µM [inhibitor, partial curve] | 
Cc1nc2c(nnn2Cc2ccccc2)c(=O)[nH]1 | inconclusive: 70.8 µM [inhibitor, partial curve, poor fit] | 
N#CCSc1nnc(N)s1 |  | inactive: 7.29%
Cc1cccc(C(C)C)c1NC(=O)CCl | inconclusive: 35.5 µM [inhibitor, partial curve] | 
Cc1cc(Cl)cc(C)c1OCC(=O)NCc1cccc(NC(=O)C2CC2)c1 | inconclusive: 89.1 µM [inhibitor, single point] | 
Cc1ccc2[nH]c(C)c(CCN(Cc3cccnc3)C(=S)NC(C)(C)C)c2c1 |  | inactive: 4.5%
COc1cc(OC)c2c(-c3ccccc3)cc(=O)oc2c1C(CCN1CCOCC1)c1ccc2c(c1)OCO2 (stereo not given) | inconclusive: 112 µM [inhibitor, single point] | 
N#Cc1ccc(CN2CCc3nc(C(=O)Nc4cccc(C(F)(F)F)c4)oc3CC2)cc1 |  | inactive: 13.1%
O=S(=O)(c1ccc(F)cc1)N1CCC(Oc2ccc(-c3noc(C4CC4)n3)cc2)C1 (stereo not given) |  | inactive: -6.83%
Cc1ccc(C2=CC(=O)CC(C)(C)C2)cc1 |  | inactive: -14.6%

2 of the compounds above, as labelled records:
O=S(=O)(c1ccc(F)cc1)N1CCC(Oc2ccc(-c3noc(C4CC4)n3)cc2)C1 (stereo not given)
  activity change, negative = inhibition: inactive: -6.83%
Cc1ccc(C2=CC(=O)CC(C)(C)C2)cc1
  activity change, negative = inhibition: inactive: -14.6%

The results go on:

Compound | Potency | activity change, negative = inhibition
CCN(CC)Cc1nc(C2(O)CCN(C(=O)CCc3ccccc3)CC2)cs1 |  | inactive: 85% [at 176 µM]
COc1cccc(CN(C)C(=O)c2cccc(S(=O)(=O)N3CCN(c4ccc(F)cc4)CC3)c2)c1OC |  | inactive: -7.84%
Cc1ccc(OCC(=O)NCCC2CCN(C(=O)Nc3cc(F)cc(F)c3)CC2)cc1 |  | inactive: 6.83%
Nc1ccccc1Sc1ccc(C(=O)c2ccccc2C(=O)O)cc1[N+](=O)[O-] | inconclusive: 8.91 µM [inhibitor, partial curve, poor fit] | 
NC(=O)c1nn(-c2ccc(Cl)cc2Cl)c(=O)cc1O | inconclusive: 15.8 µM [inhibitor, full curve, poor fit] | 
COc1cc(N2Cc3ccccc3C2)ccc1C=O |  | inactive: -23.9%
CC(=O)N1NC(=Nc2ccccc2)SC1(C)C |  | inactive: 0.131%
CC(C)CN(C(=O)CCCc1nc2ccccc2c(=O)[nH]1)c1c(N)n(Cc2ccccc2)c(=O)[nH]c1=O | inconclusive: 89.1 µM [inhibitor, single point] | 
N#Cc1ccccc1COC(=O)c1cccc2ccccc12 |  | inactive: -5.04%
C=CCOc1cccc(CNCCCN2CCOCC2)c1 |  | inactive: 3.11%
CN(C)/C=C\C(=O)c1cccc([N+](=O)[O-])c1 | inconclusive: 50.1 µM [inhibitor, partial curve, poor fit] | 
CC1(C)CCCN(CC(=O)c2c[nH]c3ccccc23)C1 | inconclusive: 56.2 µM [inhibitor, partial curve, poor fit] | 
CC(=O)NNc1nc(-c2ccc(NC(C)=O)cc2)cs1 |  | inactive: 3.43%
Cc1[nH]nc(-c2cccnc2)c1N=NN(C)C | inconclusive: 15.8 µM [inhibitor, full curve, poor fit] | 
CN(C(=O)[C@@H]1C[C@@H](c2ccc(F)cc2)N([S+](=O)([O-])c2ccccc2)C1)c1ccccc1 | inconclusive: 126 µM [inhibitor, partial curve, poor fit] | 
CC(C)(NC(=O)c1ccccc1)c1nc2ccccc2s1 | inconclusive: 31.6 µM [inhibitor, partial curve] | 
Cc1cc(NC(=O)CN2CCOCC2)n(-c2ccccc2)n1 | inconclusive: 3.16 µM [inhibitor, full curve, poor fit] | 
Cc1cc(CNC(=O)c2cccc([N+](=O)[O-])c2C)c2ccccc2n1 |  | inactive: -1.74%
Cc1cc2oc(=O)cc(CN3CCCCC3)c2cc1Cl | inconclusive: 39.8 µM [inhibitor, partial curve, poor fit] | 
COc1cc([N+](=O)[O-])ccc1N | inconclusive: 7.94 µM [inhibitor, full curve, poor fit] | 
Cc1ccc2nc(-c3ccncc3)cc(C(=O)Nc3ccc(F)cc3C)c2c1 | inconclusive: 39.8 µM [inhibitor, partial curve, poor fit] | 
O=C(Nc1ccc(-c2cn3ccsc3n2)cc1)C1CC1 | inconclusive: 100 µM [inhibitor, single point] | 
